Measurements taken from ChEMBL document CHEMBL4316593 (Eur J Med Chem, 2019).
Further values from the same series stand in other lists.

Experiments:
Type in all cases: cell-based
Details in all cases: U-87MG ATCC
[1] = Inhibition of RTK/PI3K/AKT/mTOR signaling in human U87 cells assessed as down regulation of HIST1H4I gene expression at cytotoxic IC50 measured after 48 hrs relative to control
[2] = Inhibition of RTK/PI3K/AKT/mTOR signaling in human U87 cells assessed as down regulation of HAT1 gene expression at cytotoxic IC50 measured after 48 hrs relative to control
[3] = Inhibition of RTK/PI3K/AKT/mTOR signaling in human U87 cells assessed as down regulation of ZNF669 gene expression at cytotoxic IC50 measured after 48 hrs relative to control
[4] = Inhibition of RTK/PI3K/AKT/mTOR signaling in human U87 cells assessed as down regulation of TSPAN12 gene expression at cytotoxic IC50 measured after 48 hrs relative to control
[5] = Inhibition of RTK/PI3K/AKT/mTOR signaling in human U87 cells assessed as down regulation of GDAP1 gene expression at cytotoxic IC50 measured after 48 hrs relative to control
[6] = Inhibition of RTK/PI3K/AKT/mTOR signaling in human U87 cells assessed as down regulation of ARL13B gene expression at cytotoxic IC50 measured after 48 hrs relative to control
[7] = Inhibition of RTK/PI3K/AKT/mTOR signaling in human U87 cells assessed as down regulation of TBPL1 gene expression at cytotoxic IC50 measured after 48 hrs relative to control
[8] = Inhibition of RTK/PI3K/AKT/mTOR signaling in human U87 cells assessed as down regulation of DNAJC24 gene expression at cytotoxic IC50 measured after 48 hrs relative to control
[9] = Inhibition of RTK/PI3K/AKT/mTOR signaling in human U87 cells assessed as down regulation of SLC25A28 gene expression at cytotoxic IC50 measured after 48 hrs relative to control
[10] = Inhibition of RTK/PI3K/AKT/mTOR signaling in human U87 cells assessed as down regulation of ABCD3 gene expression at cytotoxic IC50 measured after 48 hrs relative to control
[11] = Inhibition of RTK/PI3K/AKT/mTOR signaling in human U87 cells assessed as down regulation of MIGA2 gene expression at cytotoxic IC50 measured after 48 hrs relative to control
[12] = Inhibition of RTK/PI3K/AKT/mTOR signaling in human U87 cells assessed as down regulation of SPAG5 gene expression at cytotoxic IC50 measured after 48 hrs relative to control
[13] = Inhibition of RTK/PI3K/AKT/mTOR signaling in human U87 cells assessed as down regulation of GNPDA2 gene expression at cytotoxic IC50 measured after 48 hrs relative to control
[14] = Inhibition of RTK/PI3K/AKT/mTOR signaling in human U87 cells assessed as down regulation of CHMP5 gene expression at cytotoxic IC50 measured after 48 hrs relative to control
[15] = Inhibition of RTK/PI3K/AKT/mTOR signaling in human U87 cells assessed as down regulation of SPATS2L gene expression at cytotoxic IC50 measured after 48 hrs relative to control
[16] = Inhibition of RTK/PI3K/AKT/mTOR signaling in human U87 cells assessed as down regulation of PSMD3 gene expression at cytotoxic IC50 measured after 48 hrs relative to control
[17] = Inhibition of RTK/PI3K/AKT/mTOR signaling in human U87 cells assessed as down regulation of KDM1B gene expression at cytotoxic IC50 measured after 48 hrs relative to control
[18] = Inhibition of RTK/PI3K/AKT/mTOR signaling in human U87 cells assessed as down regulation of KIAA0907 gene expression at cytotoxic IC50 measured after 48 hrs relative to control
[19] = Inhibition of RTK/PI3K/AKT/mTOR signaling in human U87 cells assessed as up regulation of SSTR5 gene expression at cytotoxic IC50 measured after 48 hrs relative to control
[20] = Inhibition of RTK/PI3K/AKT/mTOR signaling in human U87 cells assessed as up regulation of PRR36 gene expression at cytotoxic IC50 measured after 48 hrs relative to control
[21] = Inhibition of RTK/PI3K/AKT/mTOR signaling in human U87 cells assessed as up regulation of StAR related lipid transfer domain containing 4 gene expression at cytotoxic IC50 measured after 48 hrs relative to control
[22] = Inhibition of RTK/PI3K/AKT/mTOR signaling in human U87 cells assessed as up regulation of MAPK regulated corepressor interacting protein 2 gene expression at cytotoxic IC50 measured after 48 hrs relative to control
[23] = Inhibition of RTK/PI3K/AKT/mTOR signaling in human U87 cells assessed as up regulation of zinc finger protein 33A gene expression at cytotoxic IC50 measured after 48 hrs relative to control
[24] = Inhibition of RTK/PI3K/AKT/mTOR signaling in human U87 cells assessed as up regulation of adenylate cyclase 9 gene expression at cytotoxic IC50 measured after 48 hrs relative to control
[25] = Inhibition of RTK/PI3K/AKT/mTOR signaling in human U87 cells assessed as up regulation of cadherin 3 gene expression at cytotoxic IC50 measured after 48 hrs relative to control
[26] = Inhibition of RTK/PI3K/AKT/mTOR signaling in human U87 cells assessed as up regulation of C-terminal binding protein 2 gene expression at cytotoxic IC50 measured after 48 hrs relative to control
[27] = Inhibition of RTK/PI3K/AKT/mTOR signaling in human U87 cells assessed as up regulation of casein kinase 2 alpha 1 gene expression at cytotoxic IC50 measured after 48 hrs relative to control
[28] = Inhibition of RTK/PI3K/AKT/mTOR signaling in human U87 cells assessed as up regulation of caveolin 2 gene expression at cytotoxic IC50 measured after 48 hrs relative to control
[29] = Inhibition of RTK/PI3K/AKT/mTOR signaling in human U87 cells assessed as up regulation of F-box and leucine rich repeat protein 16 gene expression at cytotoxic IC50 measured after 48 hrs relative to control
[30] = Inhibition of RTK/PI3K/AKT/mTOR signaling in human U87 cells assessed as up regulation of RAB25, member RAS oncogene family gene expression at cytotoxic IC50 measured after 48 hrs relative to control
[31] = Inhibition of RTK/PI3K/AKT/mTOR signaling in human U87 cells assessed as up regulation of SPOP gene expression at cytotoxic IC50 measured after 48 hrs relative to control
[32] = Inhibition of RTK/PI3K/AKT/mTOR signaling in human U87 cells assessed as up regulation of ELP3 gene expression at cytotoxic IC50 measured after 48 hrs relative to control

CC(=O)C(=NNc1ccccc1C#N)C(C)=O
log2FC [1]: -2.03
log2FC [2]: -1.75
log2FC [3]: -1.48
log2FC [4]: -1.41
log2FC [5]: -1.16
log2FC [6]: -0.951
log2FC [7]: -0.932
log2FC [8]: -0.908
log2FC [9]: -0.886
log2FC [10]: -0.845
log2FC [11]: -0.805
log2FC [12]: -0.716
log2FC [13]: -0.702
log2FC [14]: -0.697
log2FC [15]: -0.634
log2FC [16]: -0.602
log2FC [17]: -0.525
log2FC [18]: -0.518
log2FC [19]: 2.64
log2FC [20]: 2.24
log2FC [21]: 1.5
log2FC [22]: 1.43
log2FC [23]: 1.34
log2FC [24]: 1.24
log2FC [25]: 1.1
log2FC [26]: 1.08
log2FC [27]: 1.01
log2FC [28]: 0.78
log2FC [29]: 0.765
log2FC [30]: 0.723
log2FC [31]: 0.642
log2FC [32]: 0.632
